The values below come from PMC6072111.

The target in this experiment is T1, MUT-16::mCherry::2xHA (full-length) (C. elegans) (UniProt O62011).
T1 sequence: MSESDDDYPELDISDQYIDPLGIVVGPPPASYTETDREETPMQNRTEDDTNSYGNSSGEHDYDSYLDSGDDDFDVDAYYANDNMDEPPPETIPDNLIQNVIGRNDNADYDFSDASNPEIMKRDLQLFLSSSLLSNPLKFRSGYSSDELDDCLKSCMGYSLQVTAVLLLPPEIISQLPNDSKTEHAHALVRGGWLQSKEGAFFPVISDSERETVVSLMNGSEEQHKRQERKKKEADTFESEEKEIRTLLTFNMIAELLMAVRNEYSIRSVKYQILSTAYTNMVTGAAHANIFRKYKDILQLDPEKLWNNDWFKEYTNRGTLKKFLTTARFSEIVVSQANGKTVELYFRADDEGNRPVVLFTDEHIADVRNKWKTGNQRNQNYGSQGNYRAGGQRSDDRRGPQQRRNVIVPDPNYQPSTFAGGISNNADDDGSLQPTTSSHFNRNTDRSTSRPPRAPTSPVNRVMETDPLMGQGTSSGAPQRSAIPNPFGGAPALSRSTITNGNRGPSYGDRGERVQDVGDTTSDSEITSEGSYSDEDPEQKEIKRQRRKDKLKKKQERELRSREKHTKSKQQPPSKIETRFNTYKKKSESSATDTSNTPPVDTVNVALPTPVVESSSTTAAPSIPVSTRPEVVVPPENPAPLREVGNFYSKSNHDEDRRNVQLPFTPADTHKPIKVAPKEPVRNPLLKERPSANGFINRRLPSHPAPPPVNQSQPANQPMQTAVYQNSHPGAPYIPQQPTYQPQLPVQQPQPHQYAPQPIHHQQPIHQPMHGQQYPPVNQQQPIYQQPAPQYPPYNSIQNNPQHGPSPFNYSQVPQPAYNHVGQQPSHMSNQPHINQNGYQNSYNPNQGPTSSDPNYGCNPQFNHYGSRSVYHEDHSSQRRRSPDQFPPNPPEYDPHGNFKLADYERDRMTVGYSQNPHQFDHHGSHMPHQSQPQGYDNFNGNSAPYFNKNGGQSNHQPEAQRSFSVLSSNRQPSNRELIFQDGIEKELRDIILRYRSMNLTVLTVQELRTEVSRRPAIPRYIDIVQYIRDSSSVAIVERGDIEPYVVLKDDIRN
Description: co-IP; anti-HA affinity matrix on lysate of ~40,000 synchronized adult C. elegans carrying MUT-16::mCherry::2xHA (full-length or deletion) and a GFP/3xFLAG-tagged partner; western blot with anti-HA and anti-FLAG.

These are yes or no findings as the source states them, for the method shown. Binding seen in cells or lysates may run through a third protein. Binding calls can cover weak binding; strength is not graded here.

Turning to “GFP::3xFLAG::RRF-1 (C. elegans) (enzyme)”, the binding result is reported as “binds”.
For MUT-2::GFP::3xFLAG (C. elegans) the value was “binds”.
